The results in this text go back to paper doi:10.1101/2020.01.10.902387.

Common to all, as to assay: pull-down
For assay [1], the target named is (His)6-FliJ (Salmonella enterica serovar Typhimurium) (UniProt P0A1K1).
In assay [2] the target is GST-FliJ (Salmonella enterica serovar Typhimurium) (UniProt P0A1K1).
The target of assay [3] is T1, GST-FliD (Salmonella enterica serovar Typhimurium) (UniProt P16328).
T1 sequence: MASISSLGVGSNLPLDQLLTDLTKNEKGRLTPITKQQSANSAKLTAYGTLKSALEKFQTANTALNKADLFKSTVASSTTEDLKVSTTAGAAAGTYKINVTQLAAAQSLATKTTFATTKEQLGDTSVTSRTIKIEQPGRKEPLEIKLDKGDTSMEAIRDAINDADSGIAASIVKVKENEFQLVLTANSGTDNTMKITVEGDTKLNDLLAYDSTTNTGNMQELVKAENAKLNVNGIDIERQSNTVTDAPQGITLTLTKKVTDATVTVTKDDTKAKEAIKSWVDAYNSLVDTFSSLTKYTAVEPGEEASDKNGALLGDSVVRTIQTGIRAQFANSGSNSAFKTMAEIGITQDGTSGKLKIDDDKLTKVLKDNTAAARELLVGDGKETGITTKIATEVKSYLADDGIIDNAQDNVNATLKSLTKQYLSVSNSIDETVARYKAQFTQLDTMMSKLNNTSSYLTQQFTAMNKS

These are yes or no findings as the source states them, for the method shown. In cells and extracts the contact can be indirect. Some binding calls cover weakened binding; strength is not graded here. For some of these results: Sequences can lack the tags named with a protein.

“FliT94 (from UniProt P0A1N2 1-94) (domain or fragment)”: the binding entry in assay [1] and in assay [2] was “binds” throughout. For FlgNΔ76-78 (from UniProt P0A1J7 1-140), the binding result in assay [2] is recorded as “no binding”. For “FliT94-L72A (from UniProt P0A1N2 1-94) (domain or fragment)”, the binding result in assay [3] is given as “binds”; in assay [1], “no binding”.

Take “wild type FliT (from UniProt P0A1N2 1-122)”: the binding result in assay [3] is reported as “binds”. Turning to “wild type FlgN (from UniProt P0A1J7 1-140)”, the binding entry in assay [2] is “binds”. In the case of “full-length FliT-L72A (from UniProt P0A1N2 1-122)”, the results for the binding entry in assay [3] and in assay [2] were “binds” and “no binding”, respectively. On to FlgNΔ90-100 (from UniProt P0A1J7 1-140), for which, in assay [2], the binding result is recorded as “no binding”.
